Experimental data as given in publication doi:10.1101/2025.06.01.657267, “IFITM1 and IFITM3 cooperate to restrict virus entry in endolysosomes” (bioRxiv, 2025).
These are yes or no findings as the source states them, for the method shown. Binding seen in cells or lysates may run through a third protein. Some binding calls cover weakened binding; strength is not graded here.

By UniProt entry, the sequences of proteins in these tests, tags left out. Where a name states a change or a piece, a line headed by the entry shows the natural chain unless it says otherwise.
UniProt Q01628: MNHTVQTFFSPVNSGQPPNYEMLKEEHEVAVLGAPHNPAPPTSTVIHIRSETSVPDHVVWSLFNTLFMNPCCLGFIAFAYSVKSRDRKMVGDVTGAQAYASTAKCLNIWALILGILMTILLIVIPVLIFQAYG
UniProt Q01629: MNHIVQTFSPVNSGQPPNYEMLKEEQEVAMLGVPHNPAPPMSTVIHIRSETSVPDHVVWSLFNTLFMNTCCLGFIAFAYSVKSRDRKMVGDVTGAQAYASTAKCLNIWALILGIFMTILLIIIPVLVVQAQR
UniProt P13164: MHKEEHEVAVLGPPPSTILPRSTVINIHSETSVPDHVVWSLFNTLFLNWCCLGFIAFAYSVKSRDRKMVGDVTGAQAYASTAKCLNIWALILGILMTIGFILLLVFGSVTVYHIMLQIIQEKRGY

Legend:
[1] = target: endogenous IFITM3 (human (endogenous in HEK293T, primary human nasal epithelial cells and HeLa)) (UniProt Q01628); test: co-IP; anti-IFITM3 immunoprecipitation from whole cell lysates of HEK293T treated with 100 units IFNb for 18 hours; immunoblot with anti-IFITM1
[2] = target: endogenous IFITM3 (human (endogenous in HEK293T, primary human nasal epithelial cells and HeLa)) (UniProt Q01628); test: co-IP; anti-IFITM3 immunoprecipitation from whole cell lysates of primary human nasal epithelial cells untreated or treated with 100 units IFNb for 18 hours; immunoblot with anti-IFITM1
[3] = target: endogenous IFITM3 (human (endogenous in HEK293T, primary human nasal epithelial cells and HeLa)) (UniProt Q01628); test: proximity ligation; HEK293T untreated or treated with 100 units IFNb for 18 hours, fixed and permeabilized; endogenous proteins; anti-IFITM1 and anti-IFITM3
[4] = target: endogenous IFITM3 (human (endogenous in HEK293T, primary human nasal epithelial cells and HeLa)) (UniProt Q01628); test: proximity ligation; HeLa and HeLa IFITM3 knockout cells, fixed and permeabilized; endogenous proteins; anti-IFITM1 and anti-IFITM3
[5] = target: endogenous IFITM2 (human (endogenous in HeLa)) (UniProt Q01629); test: co-IP; anti-IFITM2 immunoprecipitation from whole cell lysates of HeLa untreated or treated with 100 or 500 units IFNb for 18 hours; immunoblot with anti-IFITM1 and anti-IFITM3
[6] = target: endogenous IFITM3 (human (endogenous in HEK293T, primary human nasal epithelial cells and HeLa)) (UniProt Q01628); test: co-IP; anti-IFITM3 immunoprecipitation from whole cell lysates of HeLa untreated or treated with 100 units IFNb for 18 hours; immunoblot with anti-IFITM1
FLAG-IFITM3 WT (human) [7] = target: FLAG-IFITM3 WT (human) (UniProt Q01628); test: co-IP; anti-FLAG immunoprecipitation from whole cell lysates of HEK293T stably expressing FLAG-IFITM3 WT or G95L; Dynabeads Protein G, 4°C; immunoblot with anti-IFITM1
FLAG-IFITM3 G95L (human) [8] = target: FLAG-IFITM3 G95L (human) (UniProt Q01628); test: as above
FLAG-IFITM3 WT (human) [9] = target: FLAG-IFITM3 WT (human) (UniProt Q01628); test: proximity ligation; HEK293T transiently transfected with FLAG-IFITM1 WT and FLAG-IFITM3 WT or G95L, fixed and permeabilized; anti-IFITM1 and anti-IFITM3; confocal microscopy
FLAG-IFITM3 G95L (human) [10] = target: FLAG-IFITM3 G95L (human) (UniProt Q01628); test: as above

Measured: binding

endogenous IFITM1 (from UniProt P13164 1-125)
binds: [1] | [2] | [3] | [4] | [5] | [6] | FLAG-IFITM3 WT (human) [7] | FLAG-IFITM3 G95L (human) [8]

endogenous IFITM3 (from UniProt Q01628 1-133)
binds: [5]

FLAG-IFITM1 WT (from UniProt P13164 1-125)
binds: FLAG-IFITM3 WT (human) [9] | FLAG-IFITM3 G95L (human) [10]
